The target in experiment [1] is DAT fused to yellow fluorescent protein (YFP) (YFP-DAT) (human) (UniProt Q01959). Description: SDS-resistant oligomers on SDS-PAGE and western blot; PAE cells stably expressing the tagged transporter, vehicle (DMSO) or 20 µM AIM-100 for 2 hr at 37°C (also after cocaine, dopamine, amphetamine, modafinil, KRCA-0008, CHC siRNA, at 4°C or 20°C); lysis in TGH buffer, Laemmli buffer (2% SDS, 5% β-mercaptoethanol) 5 min at 95°C, 7.5% SDS-PAGE, blot with GFP antibody; oligomers (O) against monomers (M).

Amino acid sequences for entries named in this document (tags omitted).
UniProt Q61327: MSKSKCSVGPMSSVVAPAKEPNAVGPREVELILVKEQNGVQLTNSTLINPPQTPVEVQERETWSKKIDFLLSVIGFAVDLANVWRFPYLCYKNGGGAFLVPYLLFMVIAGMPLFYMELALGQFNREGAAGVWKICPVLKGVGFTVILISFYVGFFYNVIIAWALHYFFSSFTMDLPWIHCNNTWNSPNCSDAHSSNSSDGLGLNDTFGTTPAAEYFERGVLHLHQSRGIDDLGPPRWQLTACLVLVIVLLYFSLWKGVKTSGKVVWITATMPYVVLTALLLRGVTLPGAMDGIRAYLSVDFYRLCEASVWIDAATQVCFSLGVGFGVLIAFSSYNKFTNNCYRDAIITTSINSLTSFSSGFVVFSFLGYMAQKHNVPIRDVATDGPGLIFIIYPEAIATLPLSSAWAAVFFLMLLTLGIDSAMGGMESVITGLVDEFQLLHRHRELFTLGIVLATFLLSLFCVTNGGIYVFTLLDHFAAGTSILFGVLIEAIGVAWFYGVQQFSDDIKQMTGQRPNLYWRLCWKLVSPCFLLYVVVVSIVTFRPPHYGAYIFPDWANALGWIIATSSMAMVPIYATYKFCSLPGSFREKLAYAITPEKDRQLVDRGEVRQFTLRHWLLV

The target is the same in experiment [2]. Description: FRET or BRET; sensitized FRET microscopy from CFP to YFP in living PAE cells stably co-expressing CFP-DAT and YFP-DAT; DMSO or 20 µM AIM-100 for 90 min at 37°C, imaging at room temperature (20°C). In general terms: Bioluminescence resonance energy transfer reports proximity on the nanometre scale.
The target in experiment [3] is HA-DAT (endogenous, HA-DAT knock-in mouse) (mouse) (UniProt Q61327). Nature of the experiment: SDS-resistant oligomers on SDS-PAGE and western blot; striatal synaptosomes of adult HA-DAT mice in KRH/G, vehicle (DMSO) or 10–20 µM AIM-100 for 2 hr at 37°C; pelleted synaptosomes denatured in Laemmli buffer, SDS-PAGE, blot with DAT antibody. (Immunoblotting shows a protein as a band on a membrane.)

Experiment [4] addresses W63A mutant of YFP-HA-DAT (human) (UniProt Q01959). Description: SDS-resistant oligomers on SDS-PAGE and western blot; PAE cells stably expressing the tagged transporter, vehicle (DMSO) or 20 µM AIM-100 for 2 hr at 37°C (also after cocaine, dopamine, amphetamine, modafinil, KRCA-0008, CHC siRNA, at 4°C or 20°C); lysis in TGH buffer, Laemmli buffer (2% SDS, 5% β-mercaptoethanol) 5 min at 95°C, 7.5% SDS-PAGE, blot with GFP antibody; oligomers (O) against monomers (M).

Consider three substances from PMC5896956, “Small molecule induced oligomerization, clustering and clathrin-independent endocytosis of the dopamine transporter” (eLife, 2018).

No constants are given. Whether binding was seen depends on the method and setting. For some of these results: In cells and extracts the contact can be indirect. Some binding calls cover weakened binding; strength is not graded here.

“DAT fused to yellow fluorescent protein (YFP) (YFP-DAT) (from UniProt Q01959 1-620)”: the binding entry in experiment [1] and in experiment [2] was “binds” each time. In the case of “HA-DAT (endogenous, HA-DAT knock-in mouse) (from UniProt Q61327 1-619)”, the binding entry in experiment [3] is recorded as “binds”.

Turning to “W63A mutant of YFP-HA-DAT (from UniProt Q01959 1-620)”, in experiment [4], the binding entry is recorded as “binds”.
